The record followed here is publication doi:10.1101/2025.05.12.653458.

These are yes or no findings as the source states them, for the method shown. Binding seen in cells or lysates may run through a third protein. A result given as binding can be weak or reduced; the word gives no strength. For some of these results: Tags and fused reporters may be left off the sequences shown.

The target of assay [1] is T1, RFP-AtVPS52 (Arabidopsis) (UniProt Q94KD3).
T1 sequence: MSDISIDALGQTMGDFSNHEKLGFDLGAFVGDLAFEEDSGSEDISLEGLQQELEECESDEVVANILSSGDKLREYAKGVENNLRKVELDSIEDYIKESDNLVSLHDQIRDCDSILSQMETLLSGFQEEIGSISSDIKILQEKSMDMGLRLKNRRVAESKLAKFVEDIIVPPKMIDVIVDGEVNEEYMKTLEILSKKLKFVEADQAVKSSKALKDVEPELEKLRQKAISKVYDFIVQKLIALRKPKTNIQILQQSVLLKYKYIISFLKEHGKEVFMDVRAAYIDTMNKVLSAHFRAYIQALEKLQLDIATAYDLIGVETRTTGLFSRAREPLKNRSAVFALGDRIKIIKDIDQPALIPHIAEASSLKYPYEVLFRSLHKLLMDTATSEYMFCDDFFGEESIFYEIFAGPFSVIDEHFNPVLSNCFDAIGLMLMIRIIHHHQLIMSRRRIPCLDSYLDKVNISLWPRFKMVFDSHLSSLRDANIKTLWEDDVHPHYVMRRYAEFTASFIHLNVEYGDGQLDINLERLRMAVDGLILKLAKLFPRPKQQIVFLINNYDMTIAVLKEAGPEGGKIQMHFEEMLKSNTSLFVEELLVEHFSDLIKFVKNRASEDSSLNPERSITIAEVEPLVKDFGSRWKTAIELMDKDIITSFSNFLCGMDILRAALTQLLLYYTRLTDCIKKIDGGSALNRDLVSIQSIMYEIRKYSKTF
The assay is described as follows: co-IP.

The target in assay [2] is T2, His-AtVPS52 1-170 (Arabidopsis) (UniProt Q94KD3).
T2 sequence: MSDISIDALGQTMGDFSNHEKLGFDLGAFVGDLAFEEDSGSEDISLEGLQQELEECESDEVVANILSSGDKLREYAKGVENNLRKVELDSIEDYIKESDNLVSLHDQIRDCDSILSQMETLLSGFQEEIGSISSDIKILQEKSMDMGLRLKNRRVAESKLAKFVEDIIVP
The assay is described as follows: pull-down.

On to GFP-Mp1 (Myzus persicae), for which the binding entry in assay [1] is recorded as “binds”. Consider GFP-Mp58 (Myzus persicae), for which, in assay [1], the binding entry is recorded as “binds”.

For the substance GST-Mp1 (Myzus persicae), the binding entry in assay [2] is recorded as “binds”. myc-Mp1 (Myzus persicae): in assay [1], the binding entry was “binds”.
